Data source: PubChem BioAssay AID1508597 (Cure First, 2020)
Shown is a random part of the about 2,100 reagents, in one setting of the screen. 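Calls flag viability under 80% in either arm, not effects specific to rucaparib; the reference for percent is not stated.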 Some reagents were tested in more than one well and are listed for each. Reagent sequences are not shown. Not given: the 100% reference.

Aim: 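Survival screen with siRNA in ovarian cancer cells derived from patients, with or without rucaparib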 (primary screen)
System: human ovarian carcinoma lines grown from tumours: OCI-P5x (papillary serous) and OCI-C5x (clear cell)
Knock-down reagent: siRNA pool against human genes, 1.25 pmol siRNA per well
Timing: 72 h or 96 h, depending on the cell culture
Treatment: rucaparib 20 µM (about IC30) or vehicle, present until read-out
Rucaparib or vehicle: Vehicle
Cell line: OCI-P5x (serous)
Detection: 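ATP luminescence measured at 72 or 96 h according to the culture, then normalised and expressed as percent viability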
Scale: viability, normalised: higher = more viable cells remaining
Rule for the call: 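a well counts as a hit if its normalised viability is under 80 percent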
Calls: active = viability under 80%; inactive = viability 80% or more

Gene	technical replicate	viability, normalised (%)	Outcome
JMJD8 (jumonji domain containing 8)	1	75.6	active
JMJD8 (jumonji domain containing 8)	2	78.2	active
JMJD8 (jumonji domain containing 8)	3	131	inactive
SMAD2 (SMAD family member 2)	1	52.3	active
SMAD2 (SMAD family member 2)	2	55.8	active
SMAD2 (SMAD family member 2)	3	60	active
HMG20A (high mobility group 20A)	1	77.3	active
HMG20A (high mobility group 20A)	2	94.2	inactive
HMG20A (high mobility group 20A)	3	95.4	inactive
MAST1 (microtubule associated serine/threonine kinase 1)	1	83.1	inactive
MAST1 (microtubule associated serine/threonine kinase 1)	2	68.8	active
MAST1 (microtubule associated serine/threonine kinase 1)	3	74.4	active
ZAR1 (zygote arrest 1)	1	75.8	active
ZAR1 (zygote arrest 1)	2	65.6	active
ZAR1 (zygote arrest 1)	3	81.7	inactive
PRMT2 (protein arginine methyltransferase 2)	1	48.1	active
PRMT2 (protein arginine methyltransferase 2)	2	76.9	active
PRMT2 (protein arginine methyltransferase 2)	3	101	inactive
TADA3 (transcriptional adaptor 3)	1	69	active
TADA3 (transcriptional adaptor 3)	2	75.4	active
TADA3 (transcriptional adaptor 3)	3	72.2	active
SPHK2 (sphingosine kinase 2)	1	72.9	active
SPHK2 (sphingosine kinase 2)	2	88.1	inactive
SPHK2 (sphingosine kinase 2)	3	69	active
PRKCQ (protein kinase C theta)	1	102	inactive
PRKCQ (protein kinase C theta)	2	96	inactive
PRKCQ (protein kinase C theta)	3	127	inactive
STK36 (serine/threonine kinase 36)	1	91.2	inactive
STK36 (serine/threonine kinase 36)	2	71.4	active
STK36 (serine/threonine kinase 36)	3	88	inactive
NRCAM (neuronal cell adhesion molecule)	1	44.4	active
NRCAM (neuronal cell adhesion molecule)	2	50.2	active
NRCAM (neuronal cell adhesion molecule)	3	49.1	active
IPMK (inositol polyphosphate multikinase)	1	74.9	active
IPMK (inositol polyphosphate multikinase)	2	72.8	active
IPMK (inositol polyphosphate multikinase)	3	70.2	active
ACIN1 (apoptotic chromatin condensation inducer 1)	1	46.2	active
ACIN1 (apoptotic chromatin condensation inducer 1)	2	46.9	active
ACIN1 (apoptotic chromatin condensation inducer 1)	3	55.7	active
TRIM33 (tripartite motif containing 33)	1	98.4	inactive
TRIM33 (tripartite motif containing 33)	1	75	active
TRIM33 (tripartite motif containing 33)	2	59	active
TRIM33 (tripartite motif containing 33)	2	72.9	active
TRIM33 (tripartite motif containing 33)	3	84.3	inactive
TRIM33 (tripartite motif containing 33)	3	83.8	inactive
TSPYL2 (TSPY like 2)	1	76.7	active
TSPYL2 (TSPY like 2)	2	73.2	active
TSPYL2 (TSPY like 2)	3	74.8	active
CSK (C-terminal Src kinase)	1	67.8	active
CSK (C-terminal Src kinase)	2	77.6	active
CSK (C-terminal Src kinase)	3	74.9	active
PIP4K2A (phosphatidylinositol-5-phosphate 4-kinase type 2 alpha)	1	69	active
PIP4K2A (phosphatidylinositol-5-phosphate 4-kinase type 2 alpha)	2	55.2	active
PIP4K2A (phosphatidylinositol-5-phosphate 4-kinase type 2 alpha)	3	59.6	active
SMC4 (structural maintenance of chromosomes 4)	1	61.8	active
SMC4 (structural maintenance of chromosomes 4)	2	58.4	active
SMC4 (structural maintenance of chromosomes 4)	3	69.5	active

8 of these entries in another layout:
Gene,technical replicate,"viability, normalised (%)",Outcome
MAST1 (microtubule associated serine/threonine kinase 1),3,74.4,active
ZAR1 (zygote arrest 1),1,75.8,active
ZAR1 (zygote arrest 1),2,65.6,active
ZAR1 (zygote arrest 1),3,81.7,inactive
PRMT2 (protein arginine methyltransferase 2),1,48.1,active
PRMT2 (protein arginine methyltransferase 2),2,76.9,active
PRMT2 (protein arginine methyltransferase 2),3,101,inactive
TADA3 (transcriptional adaptor 3),1,69,active
